Measured values reported in publication PMC6823460.
No constants are given. Whether binding was seen depends on the method and setting. Some results given as binding are weak or reduced against the parent protein; the word gives no strength. For some assays here: Sequences can lack the tags named with a protein. Values belong to the binder of their own block, whether it stands above or below them.

How the values were obtained:
[1] = target: full-length VEGFA (Met1–Arg147), pGilda (LexA) fusion (human) (UniProt P15692); test: two-hybrid; Matchmaker LexA system, bait and prey vectors co-transformed in EGY48 yeast; growth for 3 days at 30 °C on leucine-depleted medium, blue colonies on X-gal, ONPG β-galactosidase activity
[2] = target: C-terminal VEGFA (Asn101–Arg147), two-hybrid fusion (human) (UniProt P15692); test: as above
[3] = target: full-length VEGFA (Met1–Arg147), pGilda (LexA) fusion (human) (UniProt P15692); test: two-hybrid; library screen, Matchmaker LexA system in EGY48 yeast; VEGFA bait in pGilda, human embryonic ovary cDNA library as prey in pB42AD

- binding [1]: binds
- binding [2]: binds
B1: full-length calpain-6 (1–641), pB42AD fusion (protein, UniProt Q9Y6Q1 1-641)
chain: MGPPLKLFKNQKYQELKQECIKDSRLFCDPTFLPENDSLFYNRLLPGKVVWKRPQDICDDPHLIVGNISNHQLTQGRLGHKPMVSAFSCLAVQESHWTKTIPNHKEQEWDPQKTEKYAGIFHFRFWHFGEWTEVVIDDLLPTINGDLVFSFSTSMNEFWNALLEKAYAKLLGCYEALDGLTITDIIVDFTGTLAETVDMQKGRYTELVEEKYKLFGELYKTFTKGGLICCSIESPNQEEQEVETDWGLLKGHTYTMTDIRKIRLGERLVEVFSAEKVYMVRLRNPLGRQEWSGPWSEISEEWQQLTASDRKNLGLVMSDDGEFWMSLEDFCRNFHKLNVCRNVNNPIFGRKELESVLGCWTVDDDPLMNRSGGCYNNRDTFLQNPQYIFTVPEDGHKVIMSLQQKDLRTYRRMGRPDNYIIGFELFKVEMNRKFRLHHLYIQERAGTSTYIDTRTVFLSKYLKKGNYVLVPTMFQHGRTSEFLLRIFSEVPVQLRELTLDMPKMSCWNLARGYPKVVTQITVHSAEDLEKKYANETVNPYLVIKCGKEEVRSPVQKNTVHAIFDTQAIFYRRTTDIPIIVQVWNSRKFCDQFLGQVTLDADPSDCRDLKSLYLRKKGGPTAKVKQGHISFKVISSDDLTEL

- binding [3]: binds
B2: calpain-6 (279–523), clone isolated from the yeast two-hybrid screen (domain or fragment, UniProt Q9Y6Q1 279-523)
chain: MVRLRNPLGRQEWSGPWSEISEEWQQLTASDRKNLGLVMSDDGEFWMSLEDFCRNFHKLNVCRNVNNPIFGRKELESVLGCWTVDDDPLMNRSGGCYNNRDTFLQNPQYIFTVPEDGHKVIMSLQQKDLRTYRRMGRPDNYIIGFELFKVEMNRKFRLHHLYIQERAGTSTYIDTRTVFLSKYLKKGNYVLVPTMFQHGRTSEFLLRIFSEVPVQLRELTLDMPKMSCWNLARGYPKVVTQITVH

- binding [1]: binds
- binding [2]: binds
B3: calpain-6 domain III (Gly321–Asp500), two-hybrid fusion (domain or fragment, UniProt Q9Y6Q1 321-500)
chain: GEFWMSLEDFCRNFHKLNVCRNVNNPIFGRKELESVLGCWTVDDDPLMNRSGGCYNNRDTFLQNPQYIFTVPEDGHKVIMSLQQKDLRTYRRMGRPDNYIIGFELFKVEMNRKFRLHHLYIQERAGTSTYIDTRTVFLSKYLKKGNYVLVPTMFQHGRTSEFLLRIFSEVPVQLRELTLD
